Assay [1] concerns the target C-terminal cytoplasmic domain of natural killer cell immunoglobulin-like receptor KIR-3DL1, residues 340-423 (C-3DL1). Description: 13C-detected CON NMR, SHP-2 2SH2 at a molar fraction of 20%, 37 C.
Assay [2] shares this target. The experiment in a line: 13C-detected CON NMR, free against complex.

These are yes or no findings as the source states them, for the method shown. Some binding calls cover weakened binding; strength is not graded here.

B1: two SH2 domains of Src-homology 2 domain-containing phosphatase 2 (SHP-2 2SH2) (enzyme, UniProt Q06124 1-247, looked up)
chain: MTSRRWFHPNITGVEAENLLLTRGVDGSFLARPSKSNPGDFTLSVRRNGAVTHIKIQNTGDYYDLYGGEKFATLAELVQYYMEHHGQLKEKNGDVIELKYPLNCADPTSERWFHGHLSGKEAEKLLTEKGKHGSFLVRESQSHPGDFVLSVRTGDDKGESNDGKSKVTHVMIRCQELKYDVGGGERFDSLTDLVEHYKKNPMVETLGTVLQLKQPLNTTRINAAEIESRVRELSKLAETTDKVKQGF
Consider B1, for which the binding result in assay [1] and in assay [2] was “binds” throughout.

(Values after patent publication US20180080942A1.)
